The target of assay [1] is T1, endogenous IRS4 (HEK293T) (human (endogenous in HEK293T)) (UniProt O14654).
T1 sequence: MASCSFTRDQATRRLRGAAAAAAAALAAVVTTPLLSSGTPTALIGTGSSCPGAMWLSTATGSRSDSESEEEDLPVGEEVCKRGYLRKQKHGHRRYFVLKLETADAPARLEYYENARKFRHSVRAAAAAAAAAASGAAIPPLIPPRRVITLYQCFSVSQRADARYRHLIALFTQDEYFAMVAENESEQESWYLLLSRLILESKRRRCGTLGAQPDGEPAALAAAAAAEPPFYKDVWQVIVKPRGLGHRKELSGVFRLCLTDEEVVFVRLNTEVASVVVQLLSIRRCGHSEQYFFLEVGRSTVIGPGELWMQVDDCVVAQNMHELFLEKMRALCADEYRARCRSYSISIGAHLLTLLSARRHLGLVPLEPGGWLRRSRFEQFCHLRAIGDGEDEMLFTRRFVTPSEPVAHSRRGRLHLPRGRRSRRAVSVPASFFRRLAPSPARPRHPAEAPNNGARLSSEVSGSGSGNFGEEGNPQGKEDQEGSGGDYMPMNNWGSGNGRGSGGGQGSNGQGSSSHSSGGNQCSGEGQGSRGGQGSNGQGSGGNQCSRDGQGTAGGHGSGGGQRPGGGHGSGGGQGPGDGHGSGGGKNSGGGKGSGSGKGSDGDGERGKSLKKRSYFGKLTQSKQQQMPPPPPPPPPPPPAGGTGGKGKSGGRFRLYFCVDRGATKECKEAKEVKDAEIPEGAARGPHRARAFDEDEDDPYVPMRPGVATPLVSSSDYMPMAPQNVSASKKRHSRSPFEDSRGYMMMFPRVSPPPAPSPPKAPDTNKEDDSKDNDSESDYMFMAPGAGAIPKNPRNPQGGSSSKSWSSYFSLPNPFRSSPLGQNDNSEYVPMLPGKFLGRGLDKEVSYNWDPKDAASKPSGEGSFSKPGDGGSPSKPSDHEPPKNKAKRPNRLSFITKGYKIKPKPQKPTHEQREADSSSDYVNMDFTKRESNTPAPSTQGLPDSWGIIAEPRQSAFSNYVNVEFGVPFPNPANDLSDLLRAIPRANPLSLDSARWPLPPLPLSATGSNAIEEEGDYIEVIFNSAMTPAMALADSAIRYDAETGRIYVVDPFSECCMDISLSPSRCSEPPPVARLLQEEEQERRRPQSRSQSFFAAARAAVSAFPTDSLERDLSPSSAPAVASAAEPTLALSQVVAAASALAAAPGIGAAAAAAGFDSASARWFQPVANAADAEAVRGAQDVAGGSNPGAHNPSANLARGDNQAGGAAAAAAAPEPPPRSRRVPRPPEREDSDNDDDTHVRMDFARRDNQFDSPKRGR
In words: co-IP; transfected HEK293T cells, lysed directly or starved 6 h and stimulated with 10 nM BMP2; RIPA or TNE buffer; IP with anti-myc (9E10) or anti-IRS4 antibody overnight, protein A sepharose; Western blot.

The chains behind the UniProt entries cited, without tags or fusion partners. Residues count along the entry.
UniProt Q13873, residues 27-1038: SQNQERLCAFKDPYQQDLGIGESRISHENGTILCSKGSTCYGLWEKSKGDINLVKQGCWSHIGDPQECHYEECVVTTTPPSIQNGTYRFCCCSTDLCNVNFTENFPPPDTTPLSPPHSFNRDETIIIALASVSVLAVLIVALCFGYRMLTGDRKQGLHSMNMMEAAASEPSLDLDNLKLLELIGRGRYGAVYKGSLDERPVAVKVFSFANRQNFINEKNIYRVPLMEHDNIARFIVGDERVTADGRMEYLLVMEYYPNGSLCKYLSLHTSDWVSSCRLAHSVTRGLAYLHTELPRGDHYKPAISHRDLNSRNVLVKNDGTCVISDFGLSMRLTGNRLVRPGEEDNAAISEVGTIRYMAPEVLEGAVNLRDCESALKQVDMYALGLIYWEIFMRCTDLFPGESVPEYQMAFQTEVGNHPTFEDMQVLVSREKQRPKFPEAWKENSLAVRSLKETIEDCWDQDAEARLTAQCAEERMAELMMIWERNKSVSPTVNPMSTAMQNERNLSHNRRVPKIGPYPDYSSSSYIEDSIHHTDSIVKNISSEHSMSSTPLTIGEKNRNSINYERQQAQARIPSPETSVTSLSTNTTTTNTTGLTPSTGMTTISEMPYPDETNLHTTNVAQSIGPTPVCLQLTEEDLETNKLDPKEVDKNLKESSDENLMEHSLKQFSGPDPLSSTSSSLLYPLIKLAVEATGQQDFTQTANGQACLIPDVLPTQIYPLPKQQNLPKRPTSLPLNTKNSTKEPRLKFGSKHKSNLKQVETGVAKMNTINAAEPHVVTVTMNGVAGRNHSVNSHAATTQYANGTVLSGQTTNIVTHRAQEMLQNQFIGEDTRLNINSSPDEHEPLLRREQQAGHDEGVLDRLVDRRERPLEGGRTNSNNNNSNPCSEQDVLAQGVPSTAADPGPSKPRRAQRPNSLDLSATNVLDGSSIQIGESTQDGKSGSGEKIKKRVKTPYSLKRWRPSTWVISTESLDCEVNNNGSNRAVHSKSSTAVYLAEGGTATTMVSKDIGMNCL

The target in assay [2] is T2, IRS2 (myc-tagged) (mouse) (UniProt P81122).
T2 sequence: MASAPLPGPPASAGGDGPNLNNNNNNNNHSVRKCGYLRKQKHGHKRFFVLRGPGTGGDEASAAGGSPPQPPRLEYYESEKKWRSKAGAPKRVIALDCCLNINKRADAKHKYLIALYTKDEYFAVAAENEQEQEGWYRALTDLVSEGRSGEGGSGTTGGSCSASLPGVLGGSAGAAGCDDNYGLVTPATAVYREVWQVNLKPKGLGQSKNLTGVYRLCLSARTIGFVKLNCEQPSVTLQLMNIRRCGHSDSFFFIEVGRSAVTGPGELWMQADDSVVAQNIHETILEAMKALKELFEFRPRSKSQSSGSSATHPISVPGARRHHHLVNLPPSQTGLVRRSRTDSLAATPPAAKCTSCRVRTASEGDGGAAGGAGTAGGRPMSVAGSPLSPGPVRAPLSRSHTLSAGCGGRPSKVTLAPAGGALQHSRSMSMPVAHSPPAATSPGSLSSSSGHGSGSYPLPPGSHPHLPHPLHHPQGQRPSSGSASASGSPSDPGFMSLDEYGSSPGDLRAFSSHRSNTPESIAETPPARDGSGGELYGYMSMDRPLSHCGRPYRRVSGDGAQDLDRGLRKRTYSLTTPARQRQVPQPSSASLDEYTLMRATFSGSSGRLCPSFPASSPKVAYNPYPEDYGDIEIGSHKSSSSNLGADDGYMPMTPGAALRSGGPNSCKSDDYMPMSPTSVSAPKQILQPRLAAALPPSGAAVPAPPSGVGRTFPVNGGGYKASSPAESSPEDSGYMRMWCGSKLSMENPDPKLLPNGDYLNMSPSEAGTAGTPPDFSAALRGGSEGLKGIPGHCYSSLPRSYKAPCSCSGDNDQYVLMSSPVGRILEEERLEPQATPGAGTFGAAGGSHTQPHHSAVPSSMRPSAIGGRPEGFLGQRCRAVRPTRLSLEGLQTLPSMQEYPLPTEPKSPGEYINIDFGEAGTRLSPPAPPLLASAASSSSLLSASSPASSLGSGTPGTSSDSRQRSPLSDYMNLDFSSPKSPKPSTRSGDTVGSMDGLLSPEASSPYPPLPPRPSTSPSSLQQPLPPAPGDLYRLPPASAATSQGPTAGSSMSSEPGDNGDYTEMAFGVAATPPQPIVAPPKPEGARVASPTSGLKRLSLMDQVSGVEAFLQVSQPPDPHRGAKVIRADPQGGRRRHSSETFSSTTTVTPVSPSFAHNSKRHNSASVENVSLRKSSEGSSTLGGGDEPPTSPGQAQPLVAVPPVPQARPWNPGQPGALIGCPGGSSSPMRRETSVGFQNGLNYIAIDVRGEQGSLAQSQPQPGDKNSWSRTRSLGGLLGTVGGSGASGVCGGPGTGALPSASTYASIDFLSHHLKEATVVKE
The description is as above.

Results are given in words; binding and its absence hold for the method and conditions named. Binding seen in cells or lysates may run through a third protein. Some results given as binding are weak or reduced against the parent protein; the word gives no strength. For some assays here: Sequences can lack the tags named with a protein.

For the substance “HA-tagged BMPRII long form (HA-BMPRII-LF) (from UniProt Q13873 27-1038) (receptor)”, the binding result in assay [1] and in assay [2] was “binds” each time.

These data come from publication PMC5562708.
